Results from patent publication US20120207673A1.
Results are given in words; binding and its absence hold for the method and conditions named. Some entries that bind do so weakly or less than the wild type.

Target: hen egg lysozyme (hen) (UniProt P00698)
Experiment: SPR (Biacore 2000), purified VH

B1: VHHEL_G08 (anti-HEL VH), purified soluble domain (protein)
VH: EVQLLESGGGLVQPGGSLRLSCAASGFRISDEDMGWVRQAPGKGLEWVSYIDNNGYSTYYADSVKGRFTISRDNSKNTLYLQMNSLRAEDTAVYYCAKKQYGYQNGGFDYWGQGTLVTVSS
- binding: binds
